In patent US20060110456A1, “Method for biocidal and/or biostatic treatment and compositions therefor” (NATIONAL UNIVERSITY OF SINGAPORE, priority 2004, published 2006):
Where a name gives a salt, the structure may show the parent alone. Some entries repeat one wording, which the source may state once for all of them.

Key:
[1] = system: Balanus amphitrite cyprids; details: LC50/EC50
Protocol: Pharmaceuticals from the respective manufacturers were treated in the following way. A pill containing a known amount of active ingredient (as stated in product information) was ground in a mortar and pestle and a suspension of 2 mg ml^−1 generated in de-ionized water. This stock solution is stored at −20° C. in 4 ml amber screw cap vials. For the bioassays, 250 ul of stock solution is added to 10 ml of 1 um filtered seawater. This suspension was then sonicated for 10 minutes. Serial dilutions of this 50 μg ml^−1 seawater solution, or suspension, with seawater was done to generate the required range of concentrations.
This method is now standard practice for many antifouling screening of novel compounds.
Barnacle larvae from field-collected adults were reared on an algal mixture of 1:2:2 v/v of Rhodomonas salina, Tetraselmis suecica and Chaetoceros muelleri at 25° C., at approximately 5×10^5 cells per ml density. On this regime, larvae metamorphose to cyprids in 5 days.
Test solutions were made up to twice the required final concentration. 1 ml of test solution was added into each well, and cyprids were transferred into each well in 1 ml of seawater. Assays were done in triplicate. After 24 hours, larvae that had attached and metamorphosed were enumerated and the result expressed as percentage settlement. Larvae not attached were scored as not settled. […]

[2] = Effect of pharmaceuticals on substratum wettability (Standard Harmonic Mean, SHM); details: 25 and 50 μg ml^−1 in seawater, 2 h

CCCCCCCCCC(=O)OC1(c2ccc(Cl)cc2)CCN(CCCC(=O)c2ccc(F)cc2)CC1 [HDL, haloperidol decanoate]
Therapeutic ratio [1]: 2.12
Wettability (SHM) of untreated polystyrene [2]: little effect

CN[C@H]1CC[C@@H](c2ccc(Cl)c(Cl)c2)c2ccccc21.Cl [ZLT, sertraline hydrochloride]
Wettability (SHM) of untreated polystyrene [2]: significantly increased the wettability

Cc1nccn1CC1CCc2c(c3ccccc3n2C)C1=O (stereo not drawn) [ZFN, ondansetron hydrochloride]
Wettability (SHM) of untreated polystyrene [2]: significantly increased the wettability

Cc1cc2c(s1)Nc1ccccc1N=C2N1CCN(C)CC1 [ZPX, olanzapine]
Therapeutic ratio [1]: 218.97
Wettability (SHM) of untreated polystyrene [2]: significantly increased the wettability

CN1CCN(CCCN2c3ccccc3Sc3ccc(C(F)(F)F)cc32)CC1 [TFZ, Trifluoperazine hydrochloride]
Wettability (SHM) of untreated polystyrene [2]: little effect

CNCCC(Oc1ccc(C(F)(F)F)cc1)c1ccccc1 (stereo not drawn) [PZC, fluoxetine hydrochloride]
Wettability (SHM) of untreated polystyrene [2]: slight increase in wettability

CN1CCN(C(c2ccccc2)c2ccccc2)CC1 [CYZ, Cyclizine hydrochloride]
Wettability (SHM) of untreated polystyrene [2]: little effect
